Residue numbers refer to the chain shown, from its start. These are yes or no findings as the source states them, for the method shown. In cells and extracts the contact can be indirect. Some results given as binding are weak or reduced against the parent protein; the word gives no strength.
How the values were obtained:
Assay in all cases: co-IP; cultured mouse cortical neurons transfected for 72 h with lentiviruses for wild-type or mutant mGluR1 or Homer1, 24 h after TNI; anti-Homer1 precipitation (stated for the Homer1 vectors), western blot for mGluR1 and Homer1
[1] = biological target: T1, Homer1 with a phosphomimetic hinge region mutation (S117D) (UniProt Q9Z2Y3)
T1 sequence: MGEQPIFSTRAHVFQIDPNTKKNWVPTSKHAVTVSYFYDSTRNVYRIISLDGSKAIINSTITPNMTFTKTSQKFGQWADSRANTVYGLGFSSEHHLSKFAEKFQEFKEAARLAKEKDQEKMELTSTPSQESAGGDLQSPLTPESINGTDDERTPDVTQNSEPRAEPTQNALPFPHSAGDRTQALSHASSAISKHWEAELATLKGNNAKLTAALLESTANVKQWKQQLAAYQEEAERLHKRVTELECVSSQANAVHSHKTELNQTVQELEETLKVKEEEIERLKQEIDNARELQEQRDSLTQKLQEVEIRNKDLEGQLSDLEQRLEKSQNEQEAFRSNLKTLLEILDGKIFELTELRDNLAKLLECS

Amino acid sequences for entries named in this document (tags omitted). A change or cut given only in a name is not applied to a line headed by its entry. Chains listed by the source or under a name are the forms on record and can include a tag or linker. Residues count along the entry.
metabotropic glutamate receptor 1 (mGluR1) (P97772, residues 21-1199): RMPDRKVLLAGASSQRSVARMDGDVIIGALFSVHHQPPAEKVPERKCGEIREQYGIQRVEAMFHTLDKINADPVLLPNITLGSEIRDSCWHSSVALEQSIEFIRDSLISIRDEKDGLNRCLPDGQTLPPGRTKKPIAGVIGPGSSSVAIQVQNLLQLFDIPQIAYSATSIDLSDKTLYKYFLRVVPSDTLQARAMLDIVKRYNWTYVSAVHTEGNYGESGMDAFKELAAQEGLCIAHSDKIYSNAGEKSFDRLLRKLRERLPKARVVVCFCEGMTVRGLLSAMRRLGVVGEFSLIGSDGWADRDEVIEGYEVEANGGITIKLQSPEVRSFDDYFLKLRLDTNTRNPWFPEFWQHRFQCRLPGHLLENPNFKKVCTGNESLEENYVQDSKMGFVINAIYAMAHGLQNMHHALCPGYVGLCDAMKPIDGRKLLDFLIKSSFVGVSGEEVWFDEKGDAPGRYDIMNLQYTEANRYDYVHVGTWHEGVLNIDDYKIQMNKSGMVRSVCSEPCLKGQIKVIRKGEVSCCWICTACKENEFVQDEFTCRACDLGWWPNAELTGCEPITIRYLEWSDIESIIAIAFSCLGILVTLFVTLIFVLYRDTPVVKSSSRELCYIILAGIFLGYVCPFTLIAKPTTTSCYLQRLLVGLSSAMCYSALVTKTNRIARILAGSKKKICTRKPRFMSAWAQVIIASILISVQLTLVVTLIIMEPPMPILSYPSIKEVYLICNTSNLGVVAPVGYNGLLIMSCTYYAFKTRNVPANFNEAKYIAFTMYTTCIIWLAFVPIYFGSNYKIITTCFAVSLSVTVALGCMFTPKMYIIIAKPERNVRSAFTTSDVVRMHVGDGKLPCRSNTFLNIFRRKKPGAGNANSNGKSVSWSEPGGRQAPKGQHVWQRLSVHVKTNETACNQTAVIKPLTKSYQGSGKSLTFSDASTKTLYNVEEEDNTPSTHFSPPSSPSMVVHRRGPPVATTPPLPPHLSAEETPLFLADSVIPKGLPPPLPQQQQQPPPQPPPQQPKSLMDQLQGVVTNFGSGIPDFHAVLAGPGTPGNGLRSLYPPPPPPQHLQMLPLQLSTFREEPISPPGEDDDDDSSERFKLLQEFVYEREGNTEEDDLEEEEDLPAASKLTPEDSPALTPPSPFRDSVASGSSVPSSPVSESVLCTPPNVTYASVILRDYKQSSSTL
mGluR1 with a phosphomimetic Homer-binding site mutation (S1154D) (P97772, form named): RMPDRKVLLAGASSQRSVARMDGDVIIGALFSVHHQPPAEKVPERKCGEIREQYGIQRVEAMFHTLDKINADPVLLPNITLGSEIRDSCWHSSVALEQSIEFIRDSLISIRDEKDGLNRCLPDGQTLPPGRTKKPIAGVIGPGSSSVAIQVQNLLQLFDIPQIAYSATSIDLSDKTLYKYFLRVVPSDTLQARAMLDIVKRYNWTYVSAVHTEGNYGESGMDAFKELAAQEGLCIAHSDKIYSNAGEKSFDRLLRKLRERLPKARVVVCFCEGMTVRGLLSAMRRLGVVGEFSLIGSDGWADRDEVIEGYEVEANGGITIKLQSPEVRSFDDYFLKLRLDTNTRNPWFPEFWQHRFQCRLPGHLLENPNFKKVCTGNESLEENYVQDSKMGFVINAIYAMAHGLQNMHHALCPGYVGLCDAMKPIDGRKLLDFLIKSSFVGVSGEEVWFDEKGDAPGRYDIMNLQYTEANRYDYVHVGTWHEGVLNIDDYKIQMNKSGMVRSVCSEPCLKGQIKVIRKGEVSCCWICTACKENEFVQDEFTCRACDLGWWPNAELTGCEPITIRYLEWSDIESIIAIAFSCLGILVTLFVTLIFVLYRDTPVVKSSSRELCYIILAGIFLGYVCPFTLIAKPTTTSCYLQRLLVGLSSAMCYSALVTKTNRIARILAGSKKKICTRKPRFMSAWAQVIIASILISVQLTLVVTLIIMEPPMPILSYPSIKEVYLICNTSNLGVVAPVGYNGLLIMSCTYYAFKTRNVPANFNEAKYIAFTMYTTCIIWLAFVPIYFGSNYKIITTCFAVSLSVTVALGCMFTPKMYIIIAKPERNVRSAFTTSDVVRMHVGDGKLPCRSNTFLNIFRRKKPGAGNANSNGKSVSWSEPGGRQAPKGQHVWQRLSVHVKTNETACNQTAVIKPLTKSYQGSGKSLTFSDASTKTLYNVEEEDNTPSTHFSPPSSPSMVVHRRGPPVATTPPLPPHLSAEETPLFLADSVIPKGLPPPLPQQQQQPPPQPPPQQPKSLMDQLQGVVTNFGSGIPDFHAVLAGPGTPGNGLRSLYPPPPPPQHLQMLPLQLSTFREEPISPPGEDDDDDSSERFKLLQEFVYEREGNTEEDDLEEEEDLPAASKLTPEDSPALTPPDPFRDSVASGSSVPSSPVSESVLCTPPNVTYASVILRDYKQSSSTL
mGluR1 with a dephosphomimetic Homer-binding site mutation (S1154A) (P97772, form named): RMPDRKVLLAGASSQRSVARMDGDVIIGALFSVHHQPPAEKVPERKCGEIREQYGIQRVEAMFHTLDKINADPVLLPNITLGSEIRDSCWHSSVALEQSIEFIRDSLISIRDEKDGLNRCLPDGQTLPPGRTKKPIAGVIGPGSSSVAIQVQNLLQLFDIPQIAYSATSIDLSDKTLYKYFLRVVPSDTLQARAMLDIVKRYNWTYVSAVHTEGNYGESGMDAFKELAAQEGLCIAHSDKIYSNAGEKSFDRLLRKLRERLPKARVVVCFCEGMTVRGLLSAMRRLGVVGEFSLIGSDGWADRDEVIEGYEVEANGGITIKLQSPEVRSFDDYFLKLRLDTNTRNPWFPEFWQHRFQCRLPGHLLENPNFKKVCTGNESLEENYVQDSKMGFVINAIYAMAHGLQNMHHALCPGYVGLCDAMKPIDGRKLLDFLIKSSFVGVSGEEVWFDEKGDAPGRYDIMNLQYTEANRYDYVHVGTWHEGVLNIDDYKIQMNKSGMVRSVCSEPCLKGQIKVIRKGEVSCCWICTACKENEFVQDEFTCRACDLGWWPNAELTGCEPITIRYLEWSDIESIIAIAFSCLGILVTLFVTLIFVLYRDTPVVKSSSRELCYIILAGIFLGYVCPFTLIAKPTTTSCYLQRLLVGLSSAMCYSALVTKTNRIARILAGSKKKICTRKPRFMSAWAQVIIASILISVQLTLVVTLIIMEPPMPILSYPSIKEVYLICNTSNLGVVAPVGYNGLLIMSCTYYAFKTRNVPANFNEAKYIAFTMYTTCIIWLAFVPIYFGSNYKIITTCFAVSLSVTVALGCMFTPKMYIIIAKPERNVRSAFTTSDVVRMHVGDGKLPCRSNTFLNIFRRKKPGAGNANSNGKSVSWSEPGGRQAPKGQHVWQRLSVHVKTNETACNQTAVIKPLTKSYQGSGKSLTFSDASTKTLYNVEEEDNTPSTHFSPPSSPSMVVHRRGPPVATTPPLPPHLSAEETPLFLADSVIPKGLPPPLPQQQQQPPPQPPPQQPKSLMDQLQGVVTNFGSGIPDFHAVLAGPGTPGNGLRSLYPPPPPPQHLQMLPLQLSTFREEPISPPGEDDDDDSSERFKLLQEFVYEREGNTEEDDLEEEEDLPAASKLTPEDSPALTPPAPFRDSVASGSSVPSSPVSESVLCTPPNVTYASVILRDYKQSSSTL

[2] = biological target: T2, Homer1 with a dephosphomimetic hinge region mutation (S117A) (UniProt Q9Z2Y3)
T2 sequence: T1 sequence with D117A

[3] = biological target: T3, Homer1 (mouse (endogenous in cultured cortical neurons and cortex)) (UniProt Q9Z2Y3)
T3 sequence: T1 sequence with D117S

Substance	binding [1]	binding [2]	binding [3]
metabotropic glutamate receptor 1 (mGluR1) (from UniProt P97772 21-1199)	binds	binds	
mGluR1 with a phosphomimetic Homer-binding site mutation (S1154D) (from UniProt P97772 21-1199) (receptor)			binds
mGluR1 with a dephosphomimetic Homer-binding site mutation (S1154A) (from UniProt P97772 21-1199) (receptor)			binds
